# In PubChem BioAssay AID2685 (National Center for Advancing Translational Sciences (NCATS), 2010):
# Hit rate of the full screen: of about 320,000 compounds, about 2,100 (0.66%) were called active. Inconclusive results, whose numbers are uncertain, are shown with a selection of clear calls. Calls follow the shape of the dose curve; as a rule, active = well fitted inhibition curve with a large enough effect in the signal ratio, with a control signal flat (not every such curve was filed as active); inconclusive = small, poorly fitted or top-dose-only effect, or effect the other way, or a change in a side signal; inactive = flat fitted curve, though single readings scatter; the % refers to the signal ratio. Where the call is inconclusive, the potency comes from a doubtful curve fit.
# Experiment: qHTS Assay for Lipid Storage Modulators in Drosophila S3 Cells
# Conditions: BODIPY lipid droplet fluorescence, 18-24 h, cells fed with added oleic acid; lipid storage change, negative = inhibition: at 46.1 µM (top of the series) unless noted
# Summary of the method: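 Drosophila S3 cells loaded with oleic acid (400 uM, as added) and compounds at several concentrations; lipid droplets imaged by 488-nm laser-scanning cytometry, 500–530 nm intensity and object ratio to cell channel. Percent activity normalized to 20 uM Triacsin C.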
# % is scaled to controls: 0 for no effect and ±100 for the full control effect; potency is read from the fitted curve at half-maximal effect.
Compound,"lipid storage change, negative = inhibition",Potency
O=C(CCc1nc2ccccc2c(=O)[nH]1)N1CCN(S(=O)(=O)c2ccc(F)cc2)CC1,inconclusive: -34.1%,–
CC(C)C(=O)Nc1nnc(NC(=S)Nc2ccccc2)s1,inconclusive: 29.5%,–
O=C(c1cc(Sc2cccc(Cl)c2)nc2ccccc12)N1CCN(c2ccccn2)CC1,–,"inconclusive: 0.731 µM [activator, full curve]"
COC(=O)c1cc(-c2ccc(NC(C)=O)cc2)nc2ccccc12,inconclusive: 27.6% [at 9.22 µM],–
CCOc1ccccc1N1CC(C(=O)N2CCc3ccccc32)CC1=O (centres undefined),inconclusive: 16.4%,–
CCCC(=O)NC(=S)NNC(=O)c1ccc([N+](=O)[O-])cc1,inconclusive: 19.4%,–
Cc1ccc(S(=O)(=O)N2CCCN(S(=O)(=O)c3ccc(C)cc3)CC2)cc1,inactive,–
COc1ccc(OC)c(/C(O)=C/C(=O)C(=O)Nc2ccccc2OC)c1,inconclusive: -1.32%,–
CN(c1ccccc1)c1ccc(/C=C(\C#N)c2nnc3n2CCCCC3)cc1[N+](=O)[O-],inactive,–
CN(CC(=O)Nc1ccc(Cl)cc1)C(=O)c1ccc(-n2cncn2)c([N+](=O)[O-])c1,inconclusive: -11%,–
N#CCCN(C(=O)COC(=O)c1cccc(S(=O)(=O)Nc2ccc([N+](=O)[O-])cc2)c1)c1ccccc1,–,"inconclusive: 29.1 µM [falling, single point]"
Cc1ccc(C)c(C(=O)COC(=O)Cn2[nH]c(=O)c3ccccc3c2=O)c1,inconclusive: 49.9%,–
CC1CCCCN1C(=S)NCc1ccco1 (centres undefined),–,"inconclusive: 0.0052 µM [falling, full curve, poor fit]"
CCN(CC)CCN(C(=O)c1ccc(C(=O)c2ccccc2)cc1)c1nc2c(OC)cccc2s1,inconclusive: 11.4%,–
O=C(NCc1csc(-c2cccs2)n1)C1CC1,–,"inconclusive: 29.1 µM [falling, single point]"
O=C(Nc1ccc(Cl)cc1Cl)C1=Cc2ccccc2OC1,inconclusive: -21.9%,–
CCOc1cc(C2C(C(=O)c3ccco3)=C(O)C(=O)N2CC2CCCO2)ccc1O (centres undefined),inconclusive: 73.1%,–
CCC(C(=O)OCC(=O)c1c(N)n(CC(C)C)c(=O)n(C)c1=O)c1ccccc1 (centres undefined),–,"inconclusive: 29.1 µM [falling, single point]"
CCOc1ccc(C2C(C(=O)c3ccco3)=C(O)C(=O)N2Cc2cccnc2)cc1OC (centres undefined),inconclusive: 20.9%,–
COc1ccc(Br)cc1/C=C(\C(=O)O)c1ccc(S(=O)(=O)N2CCCCC2)s1,inconclusive: -22.1%,–
CC(=O)/C(=C(/O)c1ccccc1)c1nc2ccccc2[nH]1,inconclusive: 14.5%,–
COc1ccc(CC(=O)NCc2n[nH]c(=S)n2-c2ccc(F)cc2)cc1,inconclusive: -15.5%,–
O=C(Nc1ccccc1-c1ccccc1)c1ccc(=O)[nH]n1,inconclusive: -0.176%,–
COc1cc2c(cc1OC)C(C)N(C(=O)c1nccnc1C(=O)O)CC2 (centres undefined),inconclusive: -9.39%,–
COc1ccc(OC)c(NC(=O)Cc2coc3cc(C)cc(C)c23)c1,inconclusive: 0.358%,–
CC(C)COC(=O)c1ccc(NC(=O)C2C3C=CC(C3)C2C(=O)O)cc1 (centres undefined),inconclusive: 25.7%,–
Cc1cnc(CN2CCc3c([nH]c4ccccc34)C2CC(C)C)[nH]1 (centres undefined),–,"inconclusive: 23.1 µM [falling, partial curve]"

# A draw from above in order of number of heavy atoms, largest number first.
Compound,"lipid storage change, negative = inhibition",Potency
CN(CC(=O)Nc1ccc(Cl)cc1)C(=O)c1ccc(-n2cncn2)c([N+](=O)[O-])c1,inconclusive: -11%,–
COc1ccc(Br)cc1/C=C(\C(=O)O)c1ccc(S(=O)(=O)N2CCCCC2)s1,inconclusive: -22.1%,–
CC(C)COC(=O)c1ccc(NC(=O)C2C3C=CC(C3)C2C(=O)O)cc1 (centres undefined),inconclusive: 25.7%,–
CCCC(=O)NC(=S)NNC(=O)c1ccc([N+](=O)[O-])cc1,inconclusive: 19.4%,–

# Continuation:

Compound,"lipid storage change, negative = inhibition",Potency
COc1ccc(CC2(CO)CCN(Cc3cccc(OC)c3OC)CC2)cc1,inconclusive: -0.406%,–
Cc1cc(C)c(OCC(=O)OCC(=O)N2CCN(C(=O)c3ccco3)CC2)c(C)c1,inconclusive,–
CC(C(=O)NC1CC1)c1ncc(C(F)(F)F)cc1Cl (centres undefined),inconclusive: -29.1%,–
Cc1cc(F)ccc1S(=O)(=O)N1CCCOC1CNC(=O)C(=O)NC1CCCCC1 (centres undefined),–,"inconclusive: 6.51 µM [activator, single point]"
Cc1cccn2c(=O)c(C=O)c(N3CCCCC3)nc12,–,"inconclusive: 20.6 µM [activator, single point]"
CCCC(CCC(=O)Nc1cc([N+](=O)[O-])ccc1O)C(=O)O (centres undefined),inconclusive: -48.5%,–
COc1ccc(CC(=O)c2ccc(O)cc2O)cc1,inconclusive: 46.3%,–
COC(=O)C(C(=O)OC)c1ccc(NC(=O)c2cccc(Cl)c2)cc1,inconclusive: 19.3%,–
O=C(NCc1ccco1)c1cc(-c2ccncc2)nc2ccccc12,inconclusive: 22.6%,–
O=C(O)c1cc(-c2ccc(Br)s2)nc2ccccc12,–,"inconclusive: 32.6 µM [activator, single point]"
COC(=O)c1ccccc1NC(=O)N1CCN(C/C=C/c2ccccc2)CC1,inconclusive: 24.2%,–
COc1ccccc1N1CCN(C(=O)CCc2ccc(S(=O)(=O)NC(C)C)cc2)CC1,inconclusive: 17.8%,–
COCCn1c(N)c(NCc2ccccc2)c(=O)[nH]c1=O,inconclusive: 13.4%,–
CC1=CC(=O)N(c2ccc(C)cc2)C1c1ccc(Cl)cc1 (centres undefined),inconclusive: -48.9%,–
COc1ccc(C=O)cc1OC(=O)C1(C)Cc2ccccc2C(=O)O1 (centres undefined),inconclusive: 1.57%,–
CC(CCc1ccccc1)NC(=O)c1ccc(F)cc1 (centres undefined),inconclusive: -2.69%,–
Cc1csc(=O)n1CCC(=O)OCC(=O)NNC(=O)c1ccc(Br)cc1,inconclusive: 7.82%,–
COCCCn1c2nc3ccccc3nc2c2c(=O)n(CC3CCCO3)cnc21 (centres undefined),inconclusive: 11.4%,–
COc1ccc2sc(C)nc2c1NC(C)=O,inconclusive: 10.8%,–
COc1cc(OC)c(C2Oc3nc(SC)nnc3-c3ccccc3N2C(C)=O)cc1OC (centres undefined),inconclusive: 68.1%,–
Cc1ccc(S(=O)(=O)N2CCOCC2)cc1N/N=C(\C#N)c1nc2ccccc2[nH]1,inconclusive: -29.1%,–
Nc1oc2ccc(F)cc2c(=O)c1C=O,inconclusive: -1.82%,–
COCCN(C(=O)c1cc2c(s1)CCCCC2)c1c(N)n(CC(C)C)c(=O)[nH]c1=O,–,"inconclusive: 3.26 µM [falling, single point]"
COc1ccc(C(=O)Nc2cccc(OC(=O)c3ccc(C)c(C)c3)c2)cc1,inconclusive: -20.6%,–
CCC(Sc1ccc(C(=O)O)cc1)C(=O)O (centres undefined),inactive,–
C/C(=N/NS(=O)(=O)c1ccccc1)c1ccc(NC(=O)C(F)(F)F)cc1,inconclusive: 59.7%,–
Cc1ccc(N=Cc2c(O)c3ccccc3oc2=O)c(C)c1,inconclusive: -4.74%,–

Compound,"lipid storage change, negative = inhibition",Potency
COc1cccc(C(C(=O)NC2CCCC2)N(Cc2cccnc2)C(=O)Cc2cccs2)c1 (centres undefined),inconclusive: 227%,–
Cc1ccc(CNS(=O)(=O)c2ccc3oc(C(=O)O)c(C)c3c2)cc1,inconclusive: -93.1%,–
O=C(c1ccc2c(c1)CCN2S(=O)(=O)c1ccccc1)N1CCN(c2ccccc2)CC1,inconclusive: -4.91%,–
CC1=NN(c2cccc(F)c2)C(=O)/C1=C/c1ccc(N(C)C)cc1,–,"inconclusive: 0.164 µM [falling, full curve]"
COc1ccc(OC)c(C(=O)COC(=O)COc2ccccc2F)c1,inconclusive,–
Cc1cc2nc3n(c2cc1C)CC1CC(C(=O)NCc2cccc(C(F)(F)F)c2)N(C)C31 (centres undefined),inconclusive: 7.22%,–
Nc1c(N(CCC2=CCCCC2)C(=O)C2CC2)c(=O)[nH]c(=O)n1Cc1ccccc1,inactive,–
COC(=O)c1ccccc1NC(=O)Cn1cc2c(n1)CCC(C)C2 (centres undefined),–,"inconclusive: 18.4 µM [activator, partial curve, poor fit]"
N#Cc1ccc(C(c2nnnn2Cc2ccccc2)N2CCCC2)cc1 (centres undefined),inconclusive: -1.3%,–
CC(=O)N1CCN(c2ccc(NC(=S)NC(=O)c3ccc(C)c([N+](=O)[O-])c3)cc2)CC1,–,"inconclusive: 16.4 µM [falling, single point]"
CN(c1ccccc1C(=O)Nc1cccnc1)S(C)(=O)=O,inconclusive: -50.9%,–
COc1ccc(C(=O)n2c(-c3ccco3)nc3ccccc32)cc1,inconclusive: -10.2%,–
COc1ccccc1N1CCN(c2ccc([N+](=O)[O-])nc2)CC1,inconclusive: 33.3%,–
Cc1ccc(N2C(=O)[C@@H]3[C@H](C2=O)C2c4ccccc4C=NN2[C@@H]3C(=O)c2ccc(Cl)cc2)cc1 (some centres undefined),inconclusive: -47.8%,–
COc1cccc(CNC(=O)CCn2c(=O)c3cccn3c3cccnc32)c1,inactive,–
CC(=O)Nc1ccc(NC(=O)COC(=O)C2(c3ccc(Cl)cc3)CCCC2)cc1,inconclusive: -56%,–
COC(=O)c1ccc(C(=O)OC)c(NC(=S)N2CCC(N3CCCCC3)CC2)c1,inconclusive: 5.85%,–
CC(C)c1c(C(=O)N/N=C/c2cccc3ccccc23)nnn1-c1nonc1N,–,"inconclusive: 5.17 µM [falling, single point]"
COc1cc(C)c(CN2CCN(C(C)C(=O)NC(C)c3ccccc3)CC2)cc1OC (centres undefined),inconclusive: 24.5%,–
CCNc1nc(SCc2ccccc2)nc(N2CCOCC2)n1,–,"inconclusive: 7.31 µM [activator, partial curve]"
Cn1c(=O)[nH]c2cc(Cl)cnc21,inconclusive: -48.1%,–
COC(=O)c1cc(CN2CCN(c3ccccc3C)CC2)ccc1O,–,"inconclusive: 29.1 µM [activator, single point]"
CCOC(=O)C1CCN(C(=O)Cc2c(C(=O)O)[nH]c3ccccc23)CC1,inconclusive: 13.1%,–
Cc1ccc(-c2cc(C(=O)N3CC(C)OC(C)C3)c3ccccc3n2)o1 (centres undefined),inconclusive,–
COc1cccc(N=C(N)N)c1,–,"inconclusive: 0.58 µM [falling, single point]"
